The text below walks through data of PubChem BioAssay AID328 (DTP/NCI, 2004).

For this assay, the system named is BDF1 mice, P388 leukemia ip, median survival T/C. Kind of assay: NCI In Vivo Anticancer Drug Screen. Data for tumor model P388 Leukemia (intraperitoneal) in B6D2F1 (BDF1) mice. The settings on record: T/C endpoint: median survival time, higher T/C = longer survival. The procedure, abridged:
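Read-out is survival of treated animals expressed relative to the vehicle group, as a T/C ratio.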

The mark [1] stands for this setting: dose: 100.0 mg/kg/injection, schedule: Q01DX009 (ip), vehicle: saline with Tween-80.
The mark [2] stands for this setting: dose: 100.0 mg/kg/injection, schedule: Q04DX003 (ip), vehicle: saline with Tween-80.
Where [3] appears, read: dose: 200.0 mg/kg/injection, schedule: Q01DX009 (ip), vehicle: saline with Tween-80.
Setting [4] is: dose: 200.0 mg/kg/injection, schedule: Q04DX003 (ip), vehicle: saline with Tween-80.
The mark [5] stands for this setting: dose: 400.0 mg/kg/injection, schedule: Q01DX009 (ip), vehicle: saline with Tween-80.
The mark [6] stands for this setting: dose: 50.0 mg/kg/injection, schedule: Q01DX009 (ip), vehicle: saline with Tween-80.
[7] abbreviates: dose: 400.0 mg/kg/injection, schedule: Q04DX003 (ip), vehicle: saline with Tween-80.
[8] abbreviates: dose: 12.5 mg/kg/injection, schedule: Q01DX009 (ip), vehicle: saline.

The list shows only some results of the screen, not a fair sample: it gathers tests that were run many times, whatever their T/C, doses with no T/C, and many T/C values between a quarter and a half above the control. Other doses and runs of a compound stand elsewhere. T/C gives the treated animals as a percentage of the vehicle group. Some doses have a count of surviving animals in place of a T/C: the source holds a T/C of zero for them, seemingly a mark for toxic or unscored doses. Some survivor counts are full or nearly so, which does not show that the dose was tolerated: the source hardly ever lists a survival T/C far under the control, and the zero likely stands for such cases as well. Counts of survivors are from the toxicity check (mostly the fifth day) where no day follows; animals may have died later. Schedule codes are those of the source, read here as Q, the interval in days (D) or hours (H), X, the number of doses. Some entries were tested several times; the values are given in rising order. Where survival is the endpoint, this PubChem deposit counts one and a half times the control or more as active, and values a quarter to a half above the control carry no call in these data; other NCI protocols may use other cut-offs. Some T/C values are followed by the survivors on the day toxicity was checked, most often the fifth; without a count, all were alive then.

Regarding `CSc1ncnc2c1ncn2CO`, the T/C was 127 % of control [5 of 6 alive] (dose: 44.0 mg/kg/injection, schedule: Q01DX009 (ip), vehicle: saline with Tween-80); 125 % of control (dose: 60.0 mg/kg/injection, schedule: Q01DX009 (ip), vehicle: Klucel (hydroxypropylcellulose) (HPC)); 137 % of control (dose: 60.0 mg/kg/injection, schedule: Q01DX009 (ip), vehicle: saline); 135 % of control (dose: 66.0 mg/kg/injection, schedule: Q01DX009 (ip), vehicle: Klucel (hydroxypropylcellulose) (HPC)); 140 % of control (dose: 66.0 mg/kg/injection, schedule: Q01DX009 (ip), vehicle: saline with Tween-80); 141 % of control [5 of 6 alive] under setting [1]. Also, the T/C was 130 % of control under setting [2] and 140 % of control under setting [4]. Besides, the survivor count is reported as 6 of 6 (dose: 120.0 mg/kg/injection, schedule: Q01DX009 (ip), vehicle: saline); 5 of 6 (dose: 150.0 mg/kg/injection, schedule: Q01DX009 (ip), vehicle: saline with Tween-80); 0 of 6 under setting [3]; 0 of 6 (dose: 240.0 mg/kg/injection, schedule: Q01DX009 (ip), vehicle: Klucel (hydroxypropylcellulose) (HPC)); 2 of 6 (dose: 240.0 mg/kg/injection, schedule: Q01DX009 (ip), vehicle: saline); 0 of 6 under setting [5].
Consider `CCC1(Br)OC1=O` (stereo unspecified), for which the T/C (dose: 225.0 mg/kg/injection, schedule: Q01DX009 (ip), vehicle: saline) is 130 % of control.
With `CS(=O)(=O)CCN(N=O)C(=N)N[N+](=O)[O-]`, the T/C reads like this: (dose: 12.0 mg/kg/injection, schedule: Q04DX003 (ip), vehicle: saline with Tween-80) 136 % of control; (dose: 66.0 mg/kg/injection, schedule: Q04DX003 (ip), vehicle: saline with Tween-80) 137 % of control; under setting [2], 145 % of control.
Take `Clc1ccc2nc(CI)c(CI)nc2c1`: the T/C is, setting by setting: (dose: 12.5 mg/kg/injection, schedule: Q01DX009 (ip), vehicle: saline with Tween-80) 130 % of control; (dose: 25.0 mg/kg/injection, schedule: Q01DX009 (ip), vehicle: Klucel (hydroxypropylcellulose) (HPC)) 127 % of control; (dose: 25.0 mg/kg/injection, schedule: Q01DX009 (ip), vehicle: saline with Tween-80) 125 % of control [5 of 6 alive]; under setting [6], 130 % of control. In addition, the survivor count is listed as 5 of 6 under setting [6]; 5 of 6 (dose: 75.0 mg/kg/injection, schedule: Q01DX009 (ip), vehicle: saline with Tween-80); 6 of 6 under setting [1]; 1 of 6 under setting [3]; 0 of 6 under setting [5].
In the case of `CCC(C)C(=O)OC1C(=O)OC2CC3C(C)=CC(=O)C(O)C3(C)C3C4(O)OCC23C1C(C)C4O` (stereo unspecified), the T/C is 141 % of control (dose: 0.12 mg/kg/injection, schedule: Q01DX009 (ip), vehicle: saline with Tween-80); 138 % of control (dose: 0.25 mg/kg/injection, schedule: Q01DX009 (ip), vehicle: saline with Tween-80); 148 % of control (dose: 0.5 mg/kg/injection, schedule: Q01DX009 (ip), vehicle: saline with Tween-80); 133 % of control (dose: 0.5 mg/kg/injection, schedule: Q01DX009 (ip), vehicle: saline); 138 % of control (dose: 1.0 mg/kg/injection, schedule: Q01DX009 (ip), vehicle: saline with Tween-80); 148 % of control (dose: 2.0 mg/kg/injection, schedule: Q01DX009 (ip), vehicle: saline with Tween-80). For the same compound, the T/C (dose: 4.0 mg/kg/injection, schedule: Q01DX009 (ip), vehicle: saline with Tween-80) was 127 % of control [5 of 6 alive]; the T/C (dose: 4.0 mg/kg/injection, schedule: Q01DX009 (ip), vehicle: saline) was 126 % of control; the T/C (dose: 8.0 mg/kg/injection, schedule: Q01DX009 (ip), vehicle: saline) is 134 % of control.
Take `N#CC1(Nc2ccccc2)CCCCC1`: the survivor count runs as follows: under setting [6], 0 of 6; under setting [1], 0 of 6; under setting [4], 0 of 6.
Consider `CCCCNC(C)(C)C(=O)c1ccco1`, for which the survivor count under setting [7] is 1 of 6.
As to `CC1(C)N=C(N)N=C(N)N1c1ccccc1`, the survivor count was 1 of 6 (dose: 75.0 mg/kg/injection, schedule: Q01DX009 (ip), vehicle: saline); 0 of 6 (dose: 150.0 mg/kg/injection, schedule: Q01DX009 (ip), vehicle: saline); 0 of 6 (dose: 300.0 mg/kg/injection, schedule: Q01DX009 (ip), vehicle: saline).
Take `CCC(C(O)c1cccs1)C(O)(C(F)(F)F)C(F)(F)F` (stereo unspecified): under setting [7], the T/C is 130 % of control.
For the compound `N=C([Se])c1ncn(C2OC(CO)C(O)C2O)c1N` (stereo unspecified), the survivor count (dose: 100.0 mg/kg/injection, schedule: Q04DX003 (ip), vehicle: saline) is 1 of 6.
For the compound `O=C1OC2(CCCCC2)Cc2oc3ccccc3c(=O)c21`, the survivor count (dose: 100.0 mg/kg/injection, schedule: Q01DX005 (ip), vehicle: Klucel (hydroxypropylcellulose) (HPC)) is on record as 6 of 6.
As to `Cc1nnc2ncccn12`, the T/C (dose: 200.0 mg/kg/injection, schedule: Q01DX009 (ip), vehicle: saline) was 130 and 134 % of control. Also, the survivor count (dose: 400.0 mg/kg/injection, schedule: Q01DX009 (ip), vehicle: saline) is 2 of 6.
Turning to `COc1cccc2c1C(=O)c1c(O)c3c(c(O)c1C2=O)C[C@@](O)(C(=O)CO)C[C@@H]3OC1CC(NC(=S)Nc2ccc(F)cc2)C(O)C(C)O1` (stereo partly specified), the T/C reads like this: (dose: 6.25 mg/kg/injection, schedule: Q01DX009 (ip), vehicle: saline) 133 % of control; under setting [8], 127 % of control; (dose: 50.0 mg/kg/injection, schedule: Q01DX009 (ip), vehicle: saline) 142 % of control. Also, the survivor count by setting is: under setting [8], 6 of 6; (dose: 25.0 mg/kg/injection, schedule: Q01DX009 (ip), vehicle: saline) 5 of 6.
Consider `CNC(=S)N/N=C\C(=N/NC(=S)NC)c1ccco1`, for which the survivor count (dose: 60.0 mg/kg/injection, schedule: Q01DX009 (ip), vehicle: saline with Tween-80) was 6 of 6.
Regarding `C=CS(=O)(=O)c1ccccc1`, the T/C is 131 % of control (dose: 25.0 mg/kg/injection, schedule: Q01DX009 (ip), vehicle: other); 138 % of control (dose: 36.0 mg/kg/injection, schedule: Q01DX009 (ip), vehicle: saline with Tween-80); 125 % of control (dose: 50.0 mg/kg/injection, schedule: Q01DX009 (ip), vehicle: other); 129 % of control (dose: 54.0 mg/kg/injection, schedule: Q01DX009 (ip), vehicle: saline with Tween-80). For the same compound, the survivor count reads like this: (dose: 100.0 mg/kg/injection, schedule: Q01DX009 (ip), vehicle: other) 2 of 6; (dose: 200.0 mg/kg/injection, schedule: Q01DX009 (ip), vehicle: other) 0 of 6.
For the compound `CCCCc1ccc(N2C(N)=NC(N)=NC2(C)C)cc1`, the T/C (dose: 25.0 mg/kg/injection, schedule: Q01DX005 (ip), vehicle: Klucel (hydroxypropylcellulose) (HPC)) is 125 % of control.
On to `CCCCCCCCCCCCCCCCCC[n+]1cccc(C2CCCN2C)c1` (stereo unspecified) (tested in a mixture with another compound), for which, under “dose: 12.5 mg/kg/injection, schedule: Q01DX009 (ip), vehicle: Klucel (hydroxypropylcellulose) (HPC)”, the T/C is 144 % of control. Besides, the survivor count (dose: 50.0 mg/kg/injection, schedule: Q01DX009 (ip), vehicle: Klucel (hydroxypropylcellulose) (HPC)) is 5 of 6 and 6 of 6; the survivor count (dose: 100.0 mg/kg/injection, schedule: Q01DX009 (ip), vehicle: Klucel (hydroxypropylcellulose) (HPC)) is 0 of 6; the survivor count (dose: 200.0 mg/kg/injection, schedule: Q01DX009 (ip), vehicle: Klucel (hydroxypropylcellulose) (HPC)) is given as 0 of 6.
Consider `O=c1c2ccccc2nc(-c2ccccc2Cl)n1/N=C/c1cccc([N+](=O)[O-])c1`, for which the survivor count under setting [6] was 6 of 6.
